Values of other authors as cited in patent publication US12472193B2, “Methods and compositions for treating and preventing respiratory related diseases and conditions with xylitol-headgroup lipid analogs” (National Jewish Health, priority 2017, dated 2025).
Certain results were filed several times, with different values. They are shown here; other results are not. The source may hold further records. The records of an entry differ for a reason that is not stated; dose, time, organism, isomer or construct need not be as stated for each record.

Details: exogenous POPG, earlier studies; cited from earlier work

## CCCCCCCC/C=C\CCCCCCCC(=O)OC(COC(=O)CCCCCCCCCCCCCCC)COP(=O)(O)OCC(O)CO (stereo not shown)
  half-life in the mouse lung: about 45 minutes and around 45 minutes and 45 minutes
